Data source: PubChem BioAssay AID1159584 (Peter MacCallum Cancer Centre, 2016)

- Assay: 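Genes whose loss is lethal only together with E-cadherin loss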 (primary screen)
- Cell system: human MCF10A breast epithelial cells, parental and CDH1-null
- Reagents: siRNA against human genes
- Measured: 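Cell viability by CellTiter-Glo ATP luminescence, each line scaled to the mean of mock wells across plates, then CDH1-null over parental ratio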
- Reading the numbers: CDH1-null / parental viability ratio: higher = CDH1-null cells survive relatively better than parental
This is one part, drawn at random, of about 18,000 deposited reagents. Further read-outs or replicates are left out here. No sequences are given here. Not given: the amount of reagent, the time to read-out.

| gene | CDH1-null / parental viability ratio |
| --- | --- |
| SLC25A44 | 0.72 |
| PCSK1N | 1 |
| SNAPC1 | 1.21 |
| CFC1B | 0.85 |
| H2AX | 0.74 |
| C10orf53 | 1.11 |
| SMYD4 | 0.85 |
| TLR5 | 1.08 |
| MED24 | 0.95 |
| ERGIC3 | 1.03 |
| DIRAS3 | 1 |
| ETV3L | 0.54 |
| GABRR3 | 1.44 |
| DDX49 | 0.95 |
| SNRPB | 1.91 |
| MMP12 | 1.07 |
| OR1L8 | 1.17 |
| C7orf25 | 1.29 |
| MRGBP | 0.91 |
| FAR1 | 0.76 |
| CHMP3 | 1.01 |
| TMEM52 | 0.9 |
| ZNF443 | 1.52 |
| FBXO38 | 0.95 |
| RASL10A | 0.88 |
| PKD1 | 1.25 |
| MYOZ2 | 0.88 |
| SEC23A | 0.84 |
| ZNF81 | 0.9 |
| ZNF561 | 0.91 |
| ZNF576 | 1.28 |
| FAM78B | 0.95 |
| PON2 | 1.3 |
| ANPEP | 1.12 |
| SPINK2 | 0.98 |
| GET4 | 1.07 |
| EPHA10 | 1.19 |
| CYP2C8 | 1 |
| TTC39A | 0.83 |
| MMAA | 1.1 |
| KCTD3 | 1.3 |
| MTIF2 | 1 |
| C9orf78 | 1.33 |
| ERMP1 | 1.31 |
| C14orf39 | 1.12 |
| SULT4A1 | 0.98 |
| ESRRG | 1.16 |
| TINAGL1 | 1.23 |
| CKS2 | 0.96 |
| SLC39A8 | 0.81 |
| EZHIP | 0.95 |
| RAB3GAP2 | 1.07 |
| NLRX1 | 1.03 |
| VSTM1 | 0.62 |
| NFXL1 | 1.06 |
| CORT | 0.87 |

Continued; the last 2 above are carried over.
| gene | CDH1-null / parental viability ratio |
| --- | --- |
| NFXL1 | 1.06 |
| CORT | 0.87 |
| TTC1 | 1.29 |
| SHISAL2A | 0.83 |
| DHX35 | 1.24 |
| KCNJ5-AS1 | 1.02 |
| PKDREJ | 1.14 |
| GPRASP3 | 0.9 |
| IFNL3 | 1.21 |
| DNAAF1 | 1.04 |
| PCDHB5 | 1.06 |
| IL4R | 0.82 |
| SLC49A3 | 1.14 |
| CAMK1D | 1.05 |
| MRPS14 | 1.16 |
| FBLN5 | 1.14 |
| FBXO41 | 1 |
| MCF2L | 0.84 |
| ACTA2 | 1 |
| EFL1 | 1 |
| BLK | 1.06 |
| H1-2 | 0.84 |
| H2BC12 | 0.79 |
| DDX60 | 1.26 |
| WDR76 | 0.94 |
| PODNL1 | 1.18 |
| ARHGEF6 | 0.98 |
| OR4F6 | 0.81 |
| KCNIP2 | 1.38 |
| RNF112 | 1 |
| PTCD1 | 1.37 |
| SLC28A2 | 0.99 |
| NRG3 | 1.31 |
